PubChem BioAssay AID1259405 | NCATS | 2018

Assay: 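Mouse-designed siRNAs used to find CHO productivity engineering targets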 (primary screen)
Cells: Chinese hamster CHO-K1 ovary cells with stable secreted eGFP expression
Knock-down reagent: single siRNA against mouse genes, 0.8 pmol siRNA per well (2 µl of 400 nM stock)
Time to read-out: 3 days
Measured: 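Per-well intracellular GFP measured by laser scanning cytometry, plus viability from ATP luminescence, each relative to plate median of non-targeting control wells, in %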
Direction: GFP, % of control: higher = more GFP per well, higher productivity; viability (ATP), % of control: higher = more viable cells (more ATP)
Rule for the call: 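Called active when intracellular GFP, relative to negative control, is at or above 120%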
In all, the deposit lists about 50,000 reagents; shown is an unselected part. About 4,000 of them (8%) were called active. 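Mouse siRNA library applied to hamster cells; one well for each siRNA.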 Unmarked entries are inactive. The numbers tell different reagents against one gene apart.

Gene | siRNA no. | GFP, % of control | viability (ATP), % of control
Pibf1 (GeneID 52023) | 1 | 50.5 | 79.5
Pibf1 (GeneID 52023) | 2 | 66.2 | 76.9
Pibf1 (GeneID 52023) | 3 | 51.7 | 60.5
Or56b1b (GeneID 258163) | 1 | 37.3 | 41
Or56b1b (GeneID 258163) | 2 | 67.9 | 91.9
Or56b1b (GeneID 258163) | 3 | 60.8 | 64.4
Copb1 (GeneID 70349) | 1 | 87.3 | 107
Copb1 (GeneID 70349) | 2 | 60.2 | 69.6
P2ry2 (GeneID 18442) | 1 | 50.9 | 37.1
P2ry2 (GeneID 18442) | 2 | 71.2 | 68.4
P2ry2 (GeneID 18442) | 3 | 48.2 | 67.3
Vps50 (GeneID 73288) | 1 | 92.2 | 68.7
Vps50 (GeneID 73288) | 2 | 35.6 | 90.5
Vps50 (GeneID 73288) | 3 | 65.6 | 74.4
Tet2 (GeneID 214133) | 1 | 65.1 | 64.3
Tet2 (GeneID 214133) | 2 | 76.2 | 63.5
Tet2 (GeneID 214133) | 3 | 73.5 | 74.9
Pcdhga2 (GeneID 93710) | 1 | 62.4 | 69.1
Pcdhga2 (GeneID 93710) | 2 | 76 | 110
Pcdhga2 (GeneID 93710) | 3 | 80.7 | 66.2
Lmo4 (GeneID 16911) | 1 | 93.1 | 90.1
Lmo4 (GeneID 16911) | 2 | 144 (active) | 163
Kcnk15 (GeneID 241769) | 1 | 105 | 80.8
Kcnk15 (GeneID 241769) | 2 | 57.2 | 101
Kcnk15 (GeneID 241769) | 3 | 137 (active) | 83.1
G6pdx (GeneID 14381) | 1 | 71.6 | 80.5
G6pdx (GeneID 14381) | 2 | 79.2 | 76.3
G6pdx (GeneID 14381) | 3 | 82.2 | 63.4
Vmn1r180 (GeneID 232962) | 1 | 103 | 79.4
Vmn1r180 (GeneID 232962) | 2 | 91.5 | 92.5
Vmn1r180 (GeneID 232962) | 3 | 30.1 | 52.6
Rps8 (GeneID 20116) | 1 | 44.3 | 25.8
Rps8 (GeneID 20116) | 2 | 72.6 | 76.7
Rps8 (GeneID 20116) | 3 | 31.5 | 48.7
Zfp764 (GeneID 233893) | 1 | 108 | 88.2
Zfp764 (GeneID 233893) | 2 | 87.3 | 68
Zfp764 (GeneID 233893) | 3 | 114 | 113
Acsm1 (GeneID 117147) | 1 | 108 | 88.2
Acsm1 (GeneID 117147) | 2 | 115 | 98.4
Acsm1 (GeneID 117147) | 3 | 94.1 | 140
Sts (GeneID 20905) | 1 | 108 | 78.9
Sts (GeneID 20905) | 2 | 85.2 | 96.8
Sts (GeneID 20905) | 3 | 74.5 | 74.2
Supv3l1 (GeneID 338359) | 1 | 82.8 | 88.4
Supv3l1 (GeneID 338359) | 2 | 72.9 | 61.1
Supv3l1 (GeneID 338359) | 3 | 94.1 | 83
Dnase1l2 (GeneID 66705) | 1 | 62.1 | 88.9
Dnase1l2 (GeneID 66705) | 2 | 96.5 | 86.2
Dnase1l2 (GeneID 66705) | 3 | 76.3 | 73.4
Bpi (GeneID 329547) | 1 | 98 | 124
Bpi (GeneID 329547) | 2 | 69.4 | 90.5
Bpi (GeneID 329547) | 3 | 38.7 | 52.2
Il17rc (GeneID 171095) | 1 | 90.5 | 111
Il17rc (GeneID 171095) | 2 | 96.9 | 55.8
Il17rc (GeneID 171095) | 3 | 88.3 | 50.5
Pth1r (GeneID 19228) | 1 | 40 | 42
Pth1r (GeneID 19228) | 2 | 67.5 | 78.5
Pth1r (GeneID 19228) | 3 | 63.2 | 83.8
Sin3a (GeneID 20466) | 1 | 86.3 | 74.6
Sin3a (GeneID 20466) | 2 | 70.5 | 83.3
Pcdhga10 (GeneID 93722) | 1 | 77.7 | 65
Pcdhga10 (GeneID 93722) | 2 | 57.9 | 69.7
Pcdhga10 (GeneID 93722) | 3 | 94.2 | 57.5
Ppm1b (GeneID 19043) | 1 | 167 (active) | 82.3
Ppm1b (GeneID 19043) | 2 | 87.9 | 62.4
Ppm1b (GeneID 19043) | 3 | 70.5 | 81.2
Nudt18 (GeneID 213484) | 1 | 62.1 | 77.6
Nudt18 (GeneID 213484) | 2 | 77.3 | 80.8
Nudt18 (GeneID 213484) | 3 | 53.8 | 56.5
Tmem18 (GeneID 211986) | 1 | 62 | 64.8
Tmem18 (GeneID 211986) | 2 | 71.4 | 69.8
Tmem18 (GeneID 211986) | 3 | 81.3 | 88.2
Mis12 (GeneID 67139) | 1 | 64.7 | 53
Mis12 (GeneID 67139) | 2 | 42.3 | 73.3
Mis12 (GeneID 67139) | 3 | 65.3 | 60.2
Hoxd11 (GeneID 15431) | 1 | 101 | 52.4
Hoxd11 (GeneID 15431) | 2 | 112 | 97.5
Hoxd11 (GeneID 15431) | 3 | 121 (active) | 87.4
Or14c46 (GeneID 258222) | 1 | 39.9 | 25.6
Or14c46 (GeneID 258222) | 2 | 85 | 67.7
Or14c46 (GeneID 258222) | 3 | 96.5 | 59.7
Bsn (GeneID 12217) | 1 | 107 | 82.9
Bsn (GeneID 12217) | 2 | 72.7 | 66.4
Bsn (GeneID 12217) | 3 | 81.1 | 63.5

Copied from the entries so far (5 entries):
Gene | siRNA no. | GFP, % of control | viability (ATP), % of control
Tet2 (GeneID 214133) | 1 | 65.1 | 64.3
Tet2 (GeneID 214133) | 2 | 76.2 | 63.5
Tet2 (GeneID 214133) | 3 | 73.5 | 74.9
Pcdhga2 (GeneID 93710) | 1 | 62.4 | 69.1
Pcdhga2 (GeneID 93710) | 2 | 76 | 110
